Measurements reported in PubChem BioAssay AID504467 (National Center for Advancing Translational Sciences (NCATS), 2011).
About 7,700 (2.3%) of roughly 330,000 compounds were called active. This list was built around the results that the source calls inconclusive (neither active nor inactive); the mix of calls is not that of the screen. Calls follow the shape of the dose curve; as a rule, active = well fitted inhibition curve with a large enough effect; inconclusive = small, poorly fitted or top-dose-only effect, or effect the other way; inactive = flat fitted curve, though single readings scatter. Potencies beside an inconclusive call are fits to weak or partial responses and may not hold up.

Experiment: qHTS screen for small molecules that inhibit ELG1-dependent DNA repair in human embryonic kidney (HEK293T) cells expressing luciferase-tagged ELG1; also: nearly all actives have a fitted effect of over 55% in size
Conditions: HEK293T ELG1-luciferase reporter, luminescence, 16 h, DNA damage induced by 5-fluorouridine; series mostly up to 46.1 µM
Outline: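 Cells (2,000 per well) received 5-fluorouridine plus test compound or DMSO and were incubated 16 hr at 37 °C, 5% CO2. Luciferase activity was read by luminescence 30 min after ONE-Glo addition; signal suppression marked inhibition of damage-induced ELG1 function.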
Potency is read from the fitted curve at half-maximal effect.

Structure (SMILES)	Potency
CCN(CC)C(=S)SCC(=O)Nc1ncc2c(n1)CC(C)(C)CC2=O	inactive
Cc1nc2ccc(C(=O)c3ccccc3)cc2[nH]1	inconclusive: 13 µM [activator, partial curve]
CCOC(=O)N/N=C/c1c(F)cccc1F	inconclusive: 18.4 µM [activator, partial curve]
COc1ccc(N2C(=O)c3ccccc3C2O)cc1 (stereo unspecified)	inconclusive: 15.8 µM [activator, partial curve, poor fit]
O=C(NCC(c1ccco1)N1CCCCC1)C(c1ccccc1)c1ccccc1 (stereo unspecified)	inconclusive: 0.73 µM [inhibitor, full curve, poor fit]
COc1ccc2oc(C(=O)OCC(=O)NCc3ccc(OC)c(OC)c3)c(C)c2c1	inconclusive: 18.3 µM [inhibitor, partial curve]
Cc1cnc(C(=O)Nc2nnc(C3CC3)s2)cn1	inconclusive: 14.6 µM [activator, partial curve]
O=c1c2ccccc2ncn1Cc1ccc(Cl)c(Cl)c1	inactive
COc1ccc(C(=O)n2nc(-c3ccc(OC)cc3)nc2N)cc1	inactive
CC1(C)O[C@@H]2[C@H](O1)[C@@H](CO)O[C@H]2n1cc(Br)c(=O)[nH]c1=O	inconclusive: 25.9 µM [activator, partial curve, poor fit]
COc1ccc2nc(/N=C\N(C)C)sc2c1	inconclusive: 29.1 µM [activator, single point]
Cc1ccnc2nc(NC(=O)c3ccco3)nn12	inconclusive: 16.4 µM [activator, partial curve]
CCC(=O)N1CCc2cc(S(=O)(=O)NCCC(=O)N3CC=C(c4ccccc4)CC3)ccc21	inconclusive: 23.1 µM [inhibitor, single point]
O=C(c1ccc(NC2=NC3CS(=O)(=O)CC3S2)cc1)N1CCN(c2ccccc2)CC1 (stereo unspecified)	inconclusive: 20.6 µM [activator, partial curve, poor fit]
O=C(/C=C/c1ccc(Cl)cc1)NC(=S)Nc1ccc(CN2CCOCC2)cc1	inactive
C[C@@H]1CN([C@H](C)CO)C(=O)c2cc(NC(=O)Nc3cccc4ccccc34)ccc2O[C@H]1CN(C)Cc1ccc(C(F)(F)F)cc1	inconclusive: 25.9 µM [activator, single point]
Cc1c(C(=O)Nc2cc(F)cc(F)c2)cnn1-c1ccccc1	inconclusive: 2.31 µM [activator, full curve]
O=c1cc(-c2cc3ccccc3o2)c2cc(O)ccc2o1	inconclusive: 29.1 µM [inhibitor, single point]
CCOC(=O)/C=c1\s/c(=C\c2ccc(C#N)cc2)c(=O)n1CC(=O)Nc1cccc(C)c1C	inconclusive: 9.2 µM [activator, partial curve]
COc1cc(C(=O)Nc2cc(C(F)(F)F)ccc2N2CCOCC2)ccc1O	inconclusive: 16.4 µM [inhibitor, single point]
O=C(CSc1nnc(-c2ccccc2F)n1C1CC1)NCc1ccco1	inactive

Structure (SMILES)	Potency
C/C(=C\c1ccccc1)C1NC(=O)c2c(sc3c2CCCC3)N1 (stereo unspecified)	inconclusive: 16.4 µM [activator, single point]
CC1(c2ccc(NC(=O)c3ccccc3F)cc2)CC1(Cl)Cl (stereo unspecified)	inconclusive: 20 µM [activator, partial curve, poor fit]
CC1CCN(C(=O)c2[nH]cnc2C(=O)NCc2ccc(CNC(=O)OC(C)(C)C)cc2)CC1	inconclusive: 23.1 µM [inhibitor, single point]
CC(C)(C)N(Cc1ccccc1)C(=O)CN1C(=O)NC2(CCCCCC2)C1=O	inactive
COc1ccccc1N(CC(=O)NC1CCCC1)C(=O)c1oc(C(C)(C)C)cc1C	inconclusive: 18.3 µM [inhibitor, partial curve]
Cc1nc2cc(NS(=O)(=O)c3cccc4cccnc34)ccc2s1	inconclusive: 9.2 µM [inhibitor, partial curve, poor fit]
CC(C)(C)c1ccc(C(=O)CSc2ncn[nH]2)cc1	inconclusive: 20.6 µM [activator, partial curve]
Cc1nn2c(Nc3ccc(F)cc3)c3c(nc2c1-c1ccccc1)CCC3	inactive
O=C(Nc1ncccc1O)c1ccc(Oc2ccccc2)cc1	inconclusive: 4.61 µM [activator, partial curve]
CCOc1ccc(-c2nnc3ccc(SCC(=O)Nc4nc5ccc(C)cc5s4)nn23)cc1	active: 8.2 µM
CC(=O)CC1(OC(C)=O)C(=O)N(C)c2ccccc21 (stereo unspecified)	inconclusive: 32.6 µM [inhibitor, partial curve, poor fit]
Cc1cc(NC(=O)c2sc3ccccc3c2O)no1	inconclusive: 10.3 µM [activator, partial curve]
C=CC[C@@H](CC(=O)N(CCO)Cc1ccccc1)C(=O)N[C@H](COC(=O)[C@@H](CC=C)Cc1ccc(F)cc1)C(C)(C)C	inconclusive: 29.1 µM [inhibitor, single point]
Nc1cc(N)nc(SCC(=O)Nc2ccc(Br)cc2Cl)n1	inconclusive: 11.2 µM [activator, partial curve]
COc1ccc(-c2ccc3c(c2)S(=O)(=O)c2cccc(C(=O)NCc4ccccc4Cl)c2C3=O)cc1OC	inconclusive: 13 µM [activator, partial curve, poor fit]
O=C(Nc1ccc2c(c1)OCCO2)C1CCCN(S(=O)(=O)c2cccc3nsnc23)C1 (stereo unspecified)	inconclusive: 25.9 µM [inhibitor, partial curve]
Cc1ccc(-n2c(Cc3cccc4ccccc34)n[nH]c2=S)c(C)c1	inactive
CC(=O)N/C(=C\c1ccccc1)C(=O)OCC(=O)N(C)C1CCCCC1	inactive
COc1ccc2nc3oc(C(=O)N4CCC(C(N)=O)CC4)cc3cc2c1	inconclusive: 23.1 µM [activator, single point]
CCC(=O)O[C@@H]1CC(=O)O[C@H](C)CC=CC=C[C@@H](O)[C@H](C)C[C@H](CC=O)[C@H](O[C@H]2O[C@H](C)[C@@H](O[C@H]3C[C@@](C)(O)[C@@H](OC(=O)CC)[C@H](C)O3)[C@H](N(C)C)[C@H]2O)[C@H]1OC	inconclusive: 0.206 µM [inhibitor, full curve]

A section from the list above, as a working copy:
Structure (SMILES)	Potency
Cc1nn2c(Nc3ccc(F)cc3)c3c(nc2c1-c1ccccc1)CCC3	inactive
O=C(Nc1ncccc1O)c1ccc(Oc2ccccc2)cc1	inconclusive: 4.61 µM [activator, partial curve]
CCOc1ccc(-c2nnc3ccc(SCC(=O)Nc4nc5ccc(C)cc5s4)nn23)cc1	active: 8.2 µM
CC(=O)CC1(OC(C)=O)C(=O)N(C)c2ccccc21 (stereo unspecified)	inconclusive: 32.6 µM [inhibitor, partial curve, poor fit]
Cc1cc(NC(=O)c2sc3ccccc3c2O)no1	inconclusive: 10.3 µM [activator, partial curve]
C=CC[C@@H](CC(=O)N(CCO)Cc1ccccc1)C(=O)N[C@H](COC(=O)[C@@H](CC=C)Cc1ccc(F)cc1)C(C)(C)C	inconclusive: 29.1 µM [inhibitor, single point]
Nc1cc(N)nc(SCC(=O)Nc2ccc(Br)cc2Cl)n1	inconclusive: 11.2 µM [activator, partial curve]
COc1ccc(-c2ccc3c(c2)S(=O)(=O)c2cccc(C(=O)NCc4ccccc4Cl)c2C3=O)cc1OC	inconclusive: 13 µM [activator, partial curve, poor fit]
O=C(Nc1ccc2c(c1)OCCO2)C1CCCN(S(=O)(=O)c2cccc3nsnc23)C1 (stereo unspecified)	inconclusive: 25.9 µM [inhibitor, partial curve]
